{"source": "PubChem BioAssay AID504834", "about": "(National Center for Advancing Translational Sciences (NCATS), 2011)", "note": "Hit rate of the full screen: of about 320,000 compounds, about 22,000 (6.9%) were called active. This list was built around the results that the source calls inconclusive (neither active nor inactive); the mix of calls is not that of the screen. Calls come from the whole dose curve; as a rule, active = well fitted inhibition curve with a large enough effect; inconclusive = small, poorly fitted or top-dose-only effect, or another doubt; inactive = no such curve, though single readings can be large or run the other way. Potencies beside an inconclusive call are fits to weak or partial responses and may not hold up. Potency is the fitted concentration of half-maximal effect.", "data": [{"assay": "Primary qHTS for delayed death inhibitors of the malarial parasite plastid, 96 hour incubation", "conditions": "P. falciparum luciferase reporter growth; series mostly up to 28.7 µM", "how_it_was_run": "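P. falciparum expressing integrated firefly luciferase grown in erythrocytes (2% hematocrit, 0.05% parasitemia final) with compounds for 96 hours at 37 C, 5% CO2. Growth inhibition read as loss of luminescence after adding luciferase detection reagent.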", "values": [{"molecule": "CCN(CC)c1ccc(NC(=O)/C=C\\c2ccccc2Cl)cc1", "Potency": "active: 1.04 µM"}, {"molecule": "Cc1ccc(COc2ccc3c(c2)OCO3)cc1", "Potency": "inactive"}, {"molecule": "Cc1occc1C(=O)Nc1nccs1", "Potency": "inconclusive: 18.5 µM [inhibitor, single point]"}, {"molecule": "CCC(C)(C(=O)NC1CCCCC1)N(C(=O)c1ccccn1)c1ccc(C)cc1", "note": "(centres undefined)", "Potency": "inconclusive: 10.4 µM [inhibitor, partial curve, poor fit]"}, {"molecule": "COc1ccc(CC(=O)N/N=C(\\C)CC(=O)Nc2ccc(N(C)C)cc2)cc1", "Potency": "inactive"}, {"molecule": "C#Cc1ccc([C@H]2C=C(C(=O)NCc3ccccc3)O[C@@H](OCC)[C@@H]2CCCO)cc1", "Potency": "inconclusive: 2.08 µM [inhibitor, full curve]"}, {"molecule": "O=C(N1CCOCC1)N1CCC(n2nnc3cc(F)ccc32)CC1", "Potency": "active: 10.4 µM"}, {"molecule": "Cc1ccc(S(=O)(=O)n2ccc3c2CCCC3=O)cc1", "Potency": "inactive"}, {"molecule": "COc1ccc(OCc2nnc(SCC(=O)c3ccccc3)o2)cc1", "Potency": "inactive"}, {"molecule": "Cc1csc(NC(=O)CSc2nnc(Cn3c(=O)sc4ccccc43)n2-c2ccccc2)n1", "Potency": "inconclusive: 10.4 µM [inhibitor, single point]"}, {"molecule": "COC(=O)C1=C(C)Nc2c(c(=O)n(C)c(=O)n2C)C1c1ccc(C)cc1", "note": "(centres undefined)", "Potency": "inactive"}, {"molecule": "CC1(C)CC(=O)C(C(C2=C(O)CC(C)(C)CC2=O)c2ccc(Br)s2)C(=O)C1", "note": "(centres undefined)", "Potency": "inconclusive: 14.7 µM [inhibitor, single point]"}, {"molecule": "O=C1c2ccccc2N2C(=O)c3ccccc3[C@H]2N1c1ccccc1", "Potency": "inconclusive: 18.5 µM [inhibitor, single point]"}, {"molecule": "O=C1CCCN1CCCNc1ncnc2sccc12", "Potency": "inactive"}, {"molecule": "CCC(=O)N1CCN(c2ccccc2NC(=O)c2ccc(OC)c(Cl)c2)CC1", "Potency": "active: 7.38 µM"}, {"molecule": "FC(F)(F)c1cccc(NC(=S)N2CCN(c3cccc(C(F)(F)F)c3)CC2)c1", "Potency": "active: 5.86 µM"}, {"molecule": "CC(=O)Nc1ccc(NC(=O)Oc2ccccc2)cc1", "Potency": "inconclusive: 18.5 µM [inhibitor, partial curve, poor fit]"}, {"molecule": "Cc1ccc(NC(=O)CN(C)C(=O)CCCN2C(=O)c3ccccc3C2=O)cc1", "Potency": "inconclusive: 5.86 µM [inhibitor, partial curve]"}, {"molecule": "COc1ccc(S(=O)(=O)N2CCCCC2)cc1NC(=O)c1ccc(OC)c(OC)c1", "Potency": "inconclusive: 9.28 µM [inhibitor, partial curve, poor fit]"}, {"molecule": "CCN(CC)C(=O)COC(=O)C1CCN(S(=O)(=O)c2ccc3c(c2)OCCO3)CC1", "Potency": "inactive"}, {"molecule": "Cc1nn(CCCC(=O)N2CCN(c3ccc(F)cc3)CC2)c(C)c1[N+](=O)[O-]", "Potency": "inactive"}, {"molecule": "Cc1ccc2nsnc2c1N", "Potency": "inactive"}, {"molecule": "O=C(Nc1ccc(N2CCOCC2)cc1)c1ccc(Br)o1", "Potency": "inactive"}, {"molecule": "Cc1cccc(NC(=O)N2CCCC2C(=O)Nc2ccccc2)c1", "note": "(centres undefined)", "Potency": "inactive"}, {"molecule": "COc1ccc(-c2cc(=O)oc3cc(OCC(=O)N[C@@H](Cc4c[nH]c5ccccc45)C(=O)O)ccc23)cc1", "Potency": "inactive"}, {"molecule": "O=C(CCN1CCOCC1)N1CCCC(Nc2ccc(F)cc2)C1", "note": "(centres undefined)", "Potency": "inconclusive: 18.5 µM [inhibitor, single point]"}, {"molecule": "CCOc1ccc(N/C(C)=C/C(=O)c2ccc(C)o2)cc1", "Potency": "inconclusive: 20.8 µM [inhibitor, single point]"}, {"molecule": "O=C1CSC(c2ccccc2O)N1Cc1ccccc1", "note": "(centres undefined)", "Potency": "inconclusive: 9.28 µM [inhibitor, partial curve, poor fit]"}, {"molecule": "Cc1ccc(C)c(NC(=O)CSc2nnc(CCCCCNC(=O)OC(C)(C)C)o2)c1", "Potency": "inconclusive: 18.5 µM [inhibitor, single point]"}, {"molecule": "COC(=O)c1ccc(COc2ccc(C(C)(C)C)cc2)o1", "Potency": "inconclusive: 18.5 µM [inhibitor, single point]"}, {"molecule": "O=C(c1cc(-c2ccc(Br)cc2)on1)N1CCc2ccccc2C1", "Potency": "inactive"}, {"molecule": "Cc1ccc(SCCC(=O)NC2CC2)cc1", "Potency": "inactive"}, {"molecule": "Clc1ccc(-c2cc(C3CCNCC3)[nH]n2)cc1", "Potency": "inconclusive: 18.5 µM [inhibitor, single point]"}, {"molecule": "COc1ccc(OC)c(NC(=O)c2ccccc2N(Cc2ccccc2)S(C)(=O)=O)c1", "Potency": "inactive"}, {"molecule": "Cc1ccc2c(c1C)NC(=O)C21N2CCCC2C(C(=O)c2ccc3ccccc3c2)C12C(=O)Nc1ccccc12", "note": "(centres undefined)", "Potency": "active: 9.28 µM"}, {"molecule": "Cc1ccc(O)c(NC(=O)c2cc3nc4c(c(C(F)(F)F)n3n2)CCc2ccccc2-4)c1", "Potency": "inconclusive: 18.5 µM [inhibitor, single point]"}, {"molecule": "Cc1cccc2cc3cccc(C)c3nc12", "Potency": "inconclusive: 0.165 µM [inhibitor, full curve, poor fit]"}, {"molecule": "CCC1=C(OC(=O)N(CC)CC)N2C(=O)OC(=NCC(=O)OC)[C@]2(Cc2ccccc2)[C@H]2C1=CC[C@H]1C(=O)N(C)C(=O)[C@H]12", "Potency": "inconclusive: 4.15 µM [inhibitor, single point]"}, {"molecule": "COc1ccccc1NC(=O)N1CCN(c2ccc(F)cc2)CC1", "Potency": "active: 2.33 µM"}, {"molecule": "O=C(Oc1ccc(C(=S)N2CCOCC2)cc1)c1ccccc1[N+](=O)[O-]", "Potency": "inconclusive: 18.5 µM [inhibitor, single point]"}, {"molecule": "CC1CCC(NC(=O)C2CCC(CNS(=O)(=O)c3cccc4nsnc34)CC2)CC1", "note": "(centres undefined)", "Potency": "inconclusive: 11.7 µM [inhibitor, single point]"}, {"molecule": "COc1ccccc1C(=O)NNC(=O)C(=O)NC1CCCCC1", "Potency": "inactive"}, {"molecule": "CCn1cc(C(=O)NCCCN2CCCC(C)C2)c(=O)c2cc(S(=O)(=O)N3CCOCC3)ccc21", "note": "(centres undefined)", "Potency": "inactive"}, {"molecule": "CC1=C(C(=O)OC(C)(C)C)C(c2ccc3ccccc3c2)NC(=O)N1C", "note": "(centres undefined)", "Potency": "inconclusive: 18.5 µM [inhibitor, single point]"}, {"molecule": "CC(=O)n1nc(-c2cccc(C)c2)nc1SCC(=O)Nc1ccccc1", "Potency": "inactive"}, {"molecule": "N#Cc1ccc(Oc2ccc(NC(=O)C3CC=CCC3C(=O)O)cc2)cc1", "note": "(centres undefined)", "Potency": "inconclusive: 11.7 µM [inhibitor, single point]"}, {"molecule": "Cc1ccc(CNC(=O)C2CCCN(c3ncnc4c3nc3n4CCCCC3)C2)cc1", "note": "(centres undefined)", "Potency": "inconclusive: 18.5 µM [inhibitor, single point]"}, {"molecule": "COc1ccc(C(=O)OC(C)CN2CCN(C)CC2)cc1", "note": "(centres undefined)", "Potency": "inconclusive: 18.5 µM [inhibitor, single point]"}, {"molecule": "CCOc1ccc(S(=O)(=O)N(CC)CC(=O)NCc2cccnc2)cc1C", "Potency": "inactive"}, {"molecule": "Cc1cccc(C(=O)NCCc2nnc(SCC(=O)Nc3cccc(C(=O)O)c3)n2C)c1", "Potency": "inactive"}, {"molecule": "CCN1CC=C2C(C#N)=C(N)C(C#N)(C#N)[C@H](c3ccoc3)[C@H]2C1", "Potency": "inconclusive: 7.38 µM [inhibitor, partial curve, poor fit]"}, {"molecule": "CN(C)S(=O)(=O)c1ccc(C(=O)Nc2nnc(-c3ccco3)o2)cc1", "Potency": "inconclusive: 11.7 µM [inhibitor, single point]"}, {"molecule": "C/C(=N\\Nc1ccccn1)c1ccc(S(=O)(=O)NCc2ccco2)cc1", "Potency": "inactive"}, {"molecule": "CCCCNC(=O)c1ccccc1NC(=O)CCSc1ccccc1", "Potency": "inconclusive: 18.5 µM [inhibitor, single point]"}, {"molecule": "CC(C)(C)c1ccc(N=C2SCC(=O)N2Cc2cccs2)cc1", "Potency": "inactive"}, {"molecule": "O=C1C=C(Nc2ccc(F)cc2)c2ccccc2C1=O", "Potency": "active: 1.04 µM"}, {"molecule": "C=CCn1c(C)nnc1SCC(=O)Nc1nccs1", "Potency": "inactive"}, {"molecule": "CCN(CC)C(=O)CSc1nc2cc(OC)c(OC)cc2c(=O)n1Cc1ccc(Cl)cc1", "Potency": "inconclusive: 4.15 µM [inhibitor, single point]"}, {"molecule": "CC(C)c1nc2sc3c(SCC(=O)NCc4ccco4)ncnc3c2c2c1CCC2", "Potency": "inactive"}, {"molecule": "CCOC(=O)N1CCC(NC(=O)C2CCCN2C(=O)OCc2ccccc2)CC1", "note": "(centres undefined)", "Potency": "inactive"}, {"molecule": "COc1ccc(-n2c(SCC(=O)Nc3ccc(NC(C)=O)cc3)nc3ccccc3c2=O)cc1", "Potency": "inactive"}, {"molecule": "Cc1cc(C)c(SCCc2ccncc2)c(C)c1", "Potency": "active: 10.4 µM"}, {"molecule": "CC(=O)N(Cc1ccccc1)Cc1nc2sc(C)c(C)c2c(=O)[nH]1", "Potency": "inconclusive: 1.85 µM [inhibitor, partial curve, poor fit]"}, {"molecule": "COc1cc(OC)cc(C(=O)N2CCN(Cc3ccccc3C(F)(F)F)CC2)c1", "Potency": "inconclusive: 0.828 µM [inhibitor, full curve, poor fit]"}, {"molecule": "CCOC(=O)Cn1c(=NC(=O)c2ccc([N+](=O)[O-])s2)sc2ccccc21", "Potency": "active: 3.7 µM"}, {"molecule": "COc1ccc(NC(=O)CO/N=C/C(=O)Nc2ccccc2C)c([N+](=O)[O-])c1", "Potency": "inactive"}, {"molecule": "CCc1ccc(-c2nc(CS(=O)CC(=O)NCc3ccc4c(c3)OCO4)c(C)o2)cc1", "note": "(centres undefined)", "Potency": "inconclusive: 18.5 µM [inhibitor, single point]"}, {"molecule": "O=C(Cc1c(F)cccc1Cl)Nc1ncc([N+](=O)[O-])s1", "Potency": "inconclusive: 9.28 µM [inhibitor, partial curve]"}, {"molecule": "COC(=O)NNC(=O)C1CCC(C(=O)NNC(=O)OC)CC1", "note": "(centres undefined)", "Potency": "inconclusive: 13.1 µM [inhibitor, single point]"}, {"molecule": "CCOc1ccc(S(=O)(=O)N2CCN(C(=O)c3oc4ccc(OC)cc4c3C)CC2)cc1", "Potency": "inconclusive: 7.38 µM [inhibitor, partial curve]"}, {"molecule": "CCc1ccc(N(C)S(=O)(=O)c2ccc3[nH]cc(C(=O)NCCN4CCOCC4)c(=O)c3c2)cc1", "Potency": "inconclusive: 6.57 µM [inhibitor, partial curve, poor fit]"}, {"molecule": "CCCCn1nnnc1NCc1cccs1", "Potency": "inconclusive: 18.5 µM [inhibitor, single point]"}, {"molecule": "Cc1ccc(/C=N/Nc2ncc(Cl)cc2Cl)s1", "Potency": "inconclusive: 18.5 µM [inhibitor, single point]"}, {"molecule": "Cc1ccc(S(=O)(=O)N2CCOCC2)cc1C(=O)OC(C)C(=O)c1ccccc1", "note": "(centres undefined)", "Potency": "inactive"}]}]}
